# Source: PubChem BioAssay AID1347076 (National Center for Advancing Translational Sciences (NCATS), 2019)
# Out of some 400,000 compounds screened, about 13,000 (3.2%) were called active. The inconclusive results got no clear call from the source; some entries with a clear call stand among them for comparison. Calls come from the whole dose curve; as a rule, active = well fitted cell-killing curve with a large enough effect; inconclusive = small, poorly fitted or top-dose-only effect, or effect the other way; inactive = flat fitted curve, though single readings scatter. Potencies beside an inconclusive call are fits to weak or partial responses and may not hold up.
# Assay: qHTS assay for MDR1-selective chemotherapeutics: Primary screen using the drug-selected MDR subline cells KB-V1; note: nearly all actives have a fitted effect of over 60% in size
# Settings: KB-V1 MDR cells viability, CellTiter-Glo, 72 h; series mostly up to 46.1 µM
# Method in brief: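 Cytotoxicity toward P-gp-expressing KB-V1 cells was determined as loss of CellTiter-Glo luminescence after 72 h at 37 degrees C. Compounds were tested in quantitative HTS format across a concentration range, with curves fitted to normalized data.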
# Potency is the fitted concentration of half-maximal effect.
row,Compound,Potency
1,COc1cccc(OC)c1-c1cnc(NC(C)=O)cn1,inactive
2,O=C(Nc1ccccc1)c1cc(S(=O)(=O)N2CCOCC2)cs1,"inconclusive: 25.9 µM [cytotoxic, single point]"
3,Cc1ccc(C)c(N2CCN(S(=O)(=O)c3c(C)noc3/C=C/N(C)C)CC2)c1,"inconclusive: 29.1 µM [cytotoxic, single point]"
4,O=C(N/N=C/c1ccccc1)NC1CCCCC1,active: 16.4 µM
5,COc1ccc(-n2c(=S)[nH]c3sc(-c4ccccc4)cc3c2=O)c(OC)c1,"inconclusive: 16.4 µM [rising, single point]"
6,O=C(COc1ccc2c3c(c(=O)oc2c1)CCC3)N1CCCCC1,"inconclusive: 5.8 µM [cytotoxic, partial curve]"
7,CCOC(=O)C1C(=O)OC(C)(C)C1C(C)C(=O)c1ccc(OC)cc1 (stereo not drawn),"inconclusive: 20.6 µM [cytotoxic, single point]"
8,Cc1ccc(NC(=O)CSc2nc3ccccc3c(=O)n2CCCN2CCCCC2)cc1Cl,"inconclusive: 2.91 µM [cytotoxic, full curve]"
9,CC(=O)c1c(C)[nH]c(C(=O)CN2CCN(S(=O)(=O)c3ccccc3F)CC2)c1C,"inconclusive: 23.1 µM [cytotoxic, partial curve, poor fit]"
10,O=C(c1cc(F)c(F)cc1Cl)N1CCCc2ccccc21,"inconclusive: 6.51 µM [rising, full curve]"
11,CCS(=O)(=O)N1CCN(c2ccc(C(=O)N3CCOCC3)cc2[N+](=O)[O-])CC1,inactive
12,COc1ccc(C2(CNC(=O)C(=O)Nc3ccc(C)cc3)CCOCC2)cc1,"inconclusive: 6.51 µM [cytotoxic, full curve]"
13,OCCN1CCN(C2Cc3cc(Cl)ccc3Sc3ccc(Cl)cc32)CC1 (stereo not drawn) (tested in a mixture with another compound),"inconclusive: 16.4 µM [cytotoxic, single point]"
14,COc1ccc(S(=O)(=O)Cc2ccc(C(=O)O)o2)cc1,"inconclusive: 18.4 µM [rising, partial curve, poor fit]"
15,Cc1ccc(C)c(C2=NNC(=NCc3ccccc3)SC2)c1,inactive
16,Cc1cc2nccc(-c3ccccn3)n2n1,"inconclusive: 20.6 µM [rising, partial curve, poor fit]"
17,O=C(NCCCc1nc2ccccc2n1Cc1ccccc1)C1CCCCC1,inactive
18,Cc1cc(OCC(=O)Nc2ccc(S(=O)(=O)N3CCN(C)CC3)cc2)ccc1Br,"inconclusive: 20.6 µM [cytotoxic, single point]"
19,O=C(CN1C(=O)COc2ccccc21)NCCN1CCc2ccccc2C1,"inconclusive: 0.146 µM [rising, full curve]"
20,CCCN1CCN(CCCNC(=O)CN2C(=O)c3cccnc3Oc3ccc(C)cc32)CC1,"inconclusive: 29.1 µM [rising, single point]"
21,COc1ccc(CCNC(=O)CN2CCC(n3nnc4cc(F)ccc43)CC2)cc1OC,"inconclusive: 10.3 µM [cytotoxic, single point]"
22,CC(=O)CCC(=O)NC1CCCc2c1cnn2-c1ccc(C(C)(C)C)cc1 (stereo not drawn),"inconclusive: 29.1 µM [cytotoxic, single point]"

row,Compound,Potency
1,COc1cccc(C(=O)Nc2ccc(-n3nncc3C(C)(C)C)cc2)c1,"inconclusive: 18.4 µM [cytotoxic, single point]"
2,C=CCN(CC=C)Cc1c(O)ccc2c1oc(=O)c1ccccc12,active: 10.3 µM
3,Nc1nc(SCc2ccccc2)c2ncn(Cc3ccccc3)c2n1,"inconclusive: 18.4 µM [cytotoxic, single point]"
4,CCOc1ccc(CNC(=O)c2ccc(NC(=O)N3CCSc4ncccc43)cc2)cc1OC,"inconclusive: 18.4 µM [rising, single point]"
5,COc1cccc(Cn2c(C)c(CNCc3ccccc3Cl)c(C(=O)O)c2C)c1,inactive
6,Cc1cccc(NC(=S)NNC(=O)c2csc3c2CCCC3)c1,"inconclusive: 20.6 µM [cytotoxic, single point]"
7,CCCCNS(=O)(=O)c1cc(-c2nn(C)c(=O)c3ccccc23)ccc1C,"inconclusive: 10.3 µM [cytotoxic, partial curve, poor fit]"
8,COCCCn1c(C2CCCCC2)nc2oc3cc(OC)ccc3c(=O)c2c1=O,active: 23.1 µM
9,Cc1cc(C)c(C(=O)NC2CCCc3c2cnn3-c2cccc(C)c2C)o1 (stereo not drawn),inactive
10,O=C(Nc1ccc(O)cc1)/C(=C\C=C\c1ccccc1)NC(=O)c1ccccc1,"inconclusive: 14.6 µM [rising, partial curve]"
11,Cc1c(NC(=O)CS(=O)(=O)c2ccccc2)c(=O)n(-c2ccccc2)n1C,"inconclusive: 29.1 µM [rising, single point]"
12,CC(C)(C)OC(=O)[C@H](Cc1ccccc1)NC(=O)c1ncn2c1c(=O)[nH]c1ccc(Br)cc12,"inconclusive: 1.46 µM [rising, full curve]"
13,CC(C)CCNC(=O)C1CCN(S(=O)(=O)c2cccc3nsnc23)CC1,inactive
14,CCn1c(SCC(=O)NC2CCCCC2)nnc1-c1ccco1,"inconclusive: 0.651 µM [cytotoxic, full curve, poor fit]"
15,CSc1ccc(CCNC(=O)CCc2nnc3ccc(N4CCCCC4)nn23)cc1,"inconclusive: 32.6 µM [cytotoxic, single point]"
16,Fc1ccc(-c2nnc(-c3ccc4ccccc4c3)o2)cc1,inactive
17,Cc1cc2c(cc(C(=O)OCC(=O)NCc3cccs3)n2C(C)C)o1,"inconclusive: 5.8 µM [cytotoxic, full curve, poor fit]"
18,CCc1ccccc1Nc1ncnc2c1cnn2-c1ccc(Cl)cc1,inactive
19,OC(CNCCc1ccc(C(F)(F)F)cc1)COc1ccc2ccccc2c1 (stereo not drawn),"inconclusive: 29.1 µM [cytotoxic, single point]"
20,C=CCNc1nc(C(=O)OCC(=O)Nc2ccc(S(N)(=O)=O)cc2)cs1,"inconclusive: 6.51 µM [rising, partial curve]"
21,CC(=O)OC(C(=O)N1CCOCC1)c1c(F)cccc1F (stereo not drawn),"inconclusive: 0.92 µM [cytotoxic, full curve, poor fit]"

# Ordered by formula weight (low to high): some entries from above.
row,Compound,Potency
21,CC(=O)OC(C(=O)N1CCOCC1)c1c(F)cccc1F (stereo not drawn),"inconclusive: 0.92 µM [cytotoxic, full curve, poor fit]"
14,CCn1c(SCC(=O)NC2CCCCC2)nnc1-c1ccco1,"inconclusive: 0.651 µM [cytotoxic, full curve, poor fit]"
5,COc1cccc(Cn2c(C)c(CNCc3ccccc3Cl)c(C(=O)O)c2C)c1,inactive
